The test has as its system L1210 leukemia ip in BDF1 mice, survival T/C. The test can be described thus: NCI In Vivo Anticancer Drug Screen. Data for tumor model L1210 Leukemia (intraperitoneal) in B6D2F1 (BDF1) mice. Particulars: T/C endpoint: mean survival time, higher T/C = longer survival.
[1] abbreviates: dose: 50.0 mg/kg/injection, schedule: Q01DX009 (ip), vehicle: saline.
The mark [2] stands for this setting: dose: 75.0 mg/kg/injection, schedule: Q01DX009 (ip), vehicle: saline.
[3] abbreviates: dose: 300.0 mg/kg/injection, schedule: Q01DX001 (ip), vehicle: saline.
Setting [4] is: dose: 400.0 mg/kg/injection, schedule: Q01DX009 (ip), vehicle: Klucel (hydroxypropylcellulose) (HPC).
Setting [5] is: dose: 50.0 mg/kg/injection, schedule: Q01DX009 (ip), vehicle: Klucel (hydroxypropylcellulose) (HPC).
Where [6] appears, read: dose: 100.0 mg/kg/injection, schedule: Q01DX009 (ip), vehicle: Klucel (hydroxypropylcellulose) (HPC).
The mark [7] stands for this setting: dose: 200.0 mg/kg/injection, schedule: Q01DX009 (ip), vehicle: Klucel (hydroxypropylcellulose) (HPC).
Where [8] appears, read: dose: 400.0 mg/kg/injection, schedule: Q04DX003 (ip), vehicle: saline.
[9] abbreviates: dose: 200.0 mg/kg/injection, schedule: Q04DX003 (ip), vehicle: saline with Tween-80.
Where [10] appears, read: dose: 400.0 mg/kg/injection, schedule: Q04DX003 (ip), vehicle: saline with Tween-80.
The mark [11] stands for this setting: dose: 400.0 mg/kg/injection, schedule: Q04DX003 (ip), vehicle: Klucel (hydroxypropylcellulose) (HPC).
[12] abbreviates: dose: 400.0 mg/kg/injection, schedule: Q01DX001 (ip), vehicle: saline.

The list shows only some results of the screen, not a fair sample: it gathers tests that were run many times, whatever their T/C, doses with no T/C, and many T/C values between a quarter and a half above the control. Further doses and runs are listed elsewhere. T/C is the treated group as % of the vehicle group. Some doses have a count of surviving animals in place of a T/C: the source files T/C as zero there, which appears to mark a toxic dose or a test without result, not a measured value. Some survivor counts are full or nearly so, which does not show that the dose was tolerated: the source hardly ever lists a survival T/C far under the control, and the zero likely stands for such cases as well. Counts of survivors are from the toxicity check (mostly the fifth day) where no day follows; animals may have died later. Schedules are NCI's codes, taken here to give the interval after Q, in days (D) or hours (H), and the number of doses after X. Some entries hold several experiments; the results are listed from low to high. Some schedules carry Z or #; the key to these is not given. Some molecules as drawn cover several salts, stereoisomers or complexes of the source; a dose is that of the sample tested. Counts like (3×) give the number of equal values in this list. Where survival is the endpoint, this PubChem deposit counts one and a half times the control or more as active, and values a quarter to a half above the control carry no call in these data; other NCI protocols may use other cut-offs. Some T/C values are followed by the survivors on the day toxicity was checked, most often the fifth; where none is given, no animal had died by that day.

With `COc1cc(Cc2nccc3cc(OC)c(OC)cc23)c(C(C)=O)cc1OC`, the T/C reads like this: (dose: 10.0 mg/kg/injection, schedule: Q01DX009 (ip), vehicle: saline) 127 % of control; (dose: 10.0 mg/kg/injection, schedule: Q01DX Z (ip), vehicle: saline) 126 % of control; (dose: 15.0 mg/kg/injection, schedule: Q01DX009 (ip), vehicle: saline) 126 % of control; (dose: 15.0 mg/kg/injection, schedule: Q01DX Z (ip), vehicle: saline) 125 % of control; (dose: 23.0 mg/kg/injection, schedule: Q01DX009 (ip), vehicle: saline) 136 % of control; (dose: 23.0 mg/kg/injection, schedule: Q01DX Z (ip), vehicle: saline) 134 % of control. The T/C reads like this: (dose: 35.0 mg/kg/injection, schedule: Q01DX Z (ip), vehicle: saline) 130 [5 of 6 alive] and 134 % of control; (dose: 50.0 mg/kg/injection, schedule: Q01DX Z (ip), vehicle: saline) 129 % of control. Also, the survivor count by setting is: under setting [1], 4 of 7; under setting [2], 6 of 7; (dose: 110.0 mg/kg/injection, schedule: Q01DX Z (ip), vehicle: saline) 2 of 6 and 6 of 6; (dose: 165.0 mg/kg/injection, schedule: Q01DX Z (ip), vehicle: saline) 0 of 6; (dose: 250.0 mg/kg/injection, schedule: Q01DX Z (ip), vehicle: saline) 0 of 6; (dose: 375.0 mg/kg/injection, schedule: Q01DX Z (ip), vehicle: saline) 0 of 6.
Turning to `CCCCCCC(C)NCCOC(=O)c1ccc(N)cc1` (stereo not drawn), the survivor count runs as follows: (dose: 150.0 mg/kg/injection, schedule: Q01DX001 (ip), vehicle: saline) 0 of 6; (dose: 150.0 mg/kg/injection, schedule: Q04DX003 (ip), vehicle: other) 0 of 6; (dose: 300.0 mg/kg/injection, schedule: Q01DX001 (ip), vehicle: other) 0 of 6 (2×); under setting [3], 1 of 6 and 2 of 6.
Consider `CC1=CC2CCC1C2` (stereo not drawn), for which the survivor count (dose: 300.0 mg/kg/injection, schedule: Q01DX001 (ip), vehicle: acetone) was 4 of 6.
On to `Cc1c(Cl)cccc1NC(=O)N1CCN(C)CC1`, for which the survivor count under setting [4] was 1 of 6 and 2 of 3.
For `COC(=O)C1=C(C(=O)OC)C2(C)OC1C1OC12` (stereo not drawn), the survivor count reads like this: under setting [5], 0 of 6; under setting [6], 0 of 6; under setting [7], 0 of 6; under setting [4], 0 of 6.
With `NC(=O)CSSCC(N)=O`, under setting [8], the survivor count is 0 of 6.
For the molecule `O=C(NC/C=C/Br)Nc1cnc2ccccc2c1`, the survivor count is on record as 0 of 6 under setting [9] and 0 of 6 under setting [10].
Turning to `Nc1nc(=O)n(CC(=O)c2ccco2)cc1F`, the survivor count (dose: 400.0 mg/kg/injection, schedule: Q01DX009 (ip), vehicle: saline) was 0 of 6.
Turning to `CN1CCC(O)(c2ccccc2)C(/C(=N/O)c2ccccc2)C1` (stereo not drawn), under setting [8], the survivor count is 6 of 6.
For `O=C(O)c1cccc([N+](=O)[O-])c1`, the survivor count (dose: 200.0 mg/kg/injection, schedule: Q04DX002 (ip), vehicle: Klucel (hydroxypropylcellulose) (HPC)) is recorded as 3 of 3.
Consider `N#Cc1nc2ccccc2nc1C#N`, for which the survivor count by setting is: under setting [5], 5 of 6; (dose: 50.0 mg/kg/injection, schedule: Q04DX003 (ip), vehicle: Klucel (hydroxypropylcellulose) (HPC)) 6 of 6; (dose: 100.0 mg/kg/injection, schedule: Q04DX003 (ip), vehicle: Klucel (hydroxypropylcellulose) (HPC)) 5 of 6; (dose: 200.0 mg/kg/injection, schedule: Q04DX003 (ip), vehicle: Klucel (hydroxypropylcellulose) (HPC)) 2 of 6; under setting [11], 0 of 6.
In the case of `O[C@@H]1CCC[C@H]1n1cnc2c(=S)nc[nH]c21`, the T/C is 129 % of control (dose: 100.0 mg/kg/injection, schedule: Q04DX003 (ip), vehicle: saline with Tween-80); 138 and 141 % of control under setting [9]; 141 % of control (dose: 300.0 mg/kg/injection, schedule: Q04DX003 (ip), vehicle: saline with Tween-80); 130 % of control under setting [10].
Consider `CN=NCc1ccccc1`, for which, for the setting “dose: 200.0 mg/kg/injection, schedule: Q04DX002 (ip), vehicle: saline with Tween-80”, the T/C is 125 % of control. The survivor count (dose: 400.0 mg/kg/injection, schedule: Q04DX002 (ip), vehicle: saline with Tween-80) is 1 of 3 and 3 of 3.
Consider `O=[N+]([O-])c1cc([N+](=O)[O-])c(NN(c2ccccc2)c2ccccc2)c([N+](=O)[O-])c1`, for which the survivor count reads like this: (dose: 50.0 mg/kg/injection, schedule: Q01DX Z (ip), vehicle: other) 2 of 6; (dose: 75.0 mg/kg/injection, schedule: Q01DX Z (ip), vehicle: other) 0 of 6.
`CCCCC(=O)N/N=C/c1ccc(Cl)cc1Cl`: the survivor count is 1 of 6 (dose: 200.0 mg/kg/injection, schedule: Q01DX001 (ip), vehicle: saline) and 0 of 6 under setting [12].
Regarding `CC(C)c1ccc(NC(=O)Nc2cc(Cl)ccc2Cl)cc1`, the survivor count by setting is: (dose: 100.0 mg/kg/injection, schedule: Q04DX003 (ip), vehicle: gum acacia) 5 of 6; (dose: 200.0 mg/kg/injection, schedule: Q01DX009 (ip), vehicle: gum acacia) 6 of 6.
As for `O=C(NS(=O)(=O)c1ccc(Cl)cc1)c1ccccc1`, the survivor count was 6 of 6 (dose: 200.0 mg/kg/injection, schedule: Q01DX009 (ip), vehicle: saline with Tween-80) and 0 of 6 (dose: 400.0 mg/kg/injection, schedule: Q01DX009 (ip), vehicle: saline with Tween-80).
Take `c1ccc([P+]2(Cc3cccc4ccccc34)CCc3[nH]c4ccccc4c3C2)cc1` (stereo not drawn): under setting [11], the survivor count is reported as 6 of 6.
Regarding `CCCN(C)N=Nc1ccccc1C(=O)O`, the T/C was 140 % of control (dose: 25.0 mg/kg/injection, schedule: Q01DX009 (ip), vehicle: Klucel (hydroxypropylcellulose) (HPC)); 125 % of control (dose: 50.0 mg/kg/injection, schedule: Q01DX009 (ip), vehicle: Klucel (hydroxypropylcellulose) (HPC), evaluated on day 20); 130 and 140 % of control (dose: 50.0 mg/kg/injection, schedule: Q01DX009 (ip), vehicle: Klucel (hydroxypropylcellulose) (HPC), evaluated on day 30). Besides, the survivor count under setting [6] is listed as 0 of 6, 3 of 6, 6 of 6; the survivor count under setting [7] is on record as 6 of 6; the survivor count under setting [4] was 4 of 6.
As to `Nc1nc(N)c2cc(N(CCO)CCO)ccc2n1`, under setting [12], the survivor count is on record as 2 of 4.
Turning to `CC(C)(C)C(=O)C=C(C(F)(F)F)C(F)(F)F`, the survivor count reads like this: under setting [1], 0 of 6; (dose: 100.0 mg/kg/injection, schedule: Q04DX003 (ip), vehicle: saline) 6 of 6; (dose: 200.0 mg/kg/injection, schedule: Q04DX003 (ip), vehicle: saline) 3 of 6; under setting [8], 0 of 6.
For `CCc1ccccc1NC(=O)Nc1ccc(OC)cc1`, the survivor count by setting is: under setting [6], 6 of 6; under setting [4], 6 of 6.
Regarding `NNC(=O)NO`, the T/C was 129 % of control (dose: 22.0 mg/kg/injection, schedule: Q01DX009 (ip), vehicle: saline) and 130 % of control under setting [2]. Besides, the survivor count (dose: 100.0 mg/kg/injection, schedule: Q01DX009 (ip), vehicle: saline) is recorded as 3 of 6; the survivor count (dose: 200.0 mg/kg/injection, schedule: Q01DX009 (ip), vehicle: saline) is reported as 0 of 6; the survivor count under setting [3] is recorded as 0 of 6.

The values are drawn from PubChem BioAssay AID248 (DTP/NCI, 2004).
